{"source": "PubChem BioAssay AID1224828 (NIAID, 2016)", "test": "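Find genes required for NF-kappaB p65 moving into the nucleus after LPS in mouse macrophages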 (primary screen)", "cells": "mouse RAW264.7 G9 macrophage reporter cells (GFP-p65, Tnf promoter-mCherry)", "reagent": "siRNA pool against mouse genes, 100 nM", "timing": "2 days siRNA transfection, then 40 min LPS before fixation", "treatment": "LPS (Salmonella minnesota R595) at 10 ng/ml", "measured": "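Microscopy ratio of nuclear to perinuclear-ring GFP-p65 signal, scaled to the plate median; gene score is the average of two replicate robust z-scores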", "reading the numbers": "p65 translocation robust z-score: higher = more nuclear NF-kappaB p65 after LPS than the plate median; nuclear/cytoplasmic p65 ratio: higher = more nuclear NF-kappaB p65", "rule for the call": "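Called active when z exceeds 3.3 or falls under -1.56 (median of Tlr4 controls), giving activity score of at least 50; no calls for control wells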", "meaning of the calls": "active = hit (p65 shift raised or lowered); inactive = no clear change", "note": "This is one part, drawn at random, of about 17,000 reagents. 762 of them (4.5%) count as active. 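Active calls include both raised and lowered p65 entry, mostly lowered; wells with fewer than 50 cells lack a z-score.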 The raw values are shown without normalisation."}
{"target gene":"Mfap4 (microfibrillar-associated protein 4)","p65 translocation robust z-score":0.02,"nuclear/cytoplasmic p65 ratio, rep 1":1.6,"nuclear/cytoplasmic p65 ratio, rep 2":1.66,"low cell count flag":"enough cells to score","Call":"inactive"}
{"target gene":"Cul4b (cullin 4B)","p65 translocation robust z-score":-0.77,"nuclear/cytoplasmic p65 ratio, rep 1":1.45,"nuclear/cytoplasmic p65 ratio, rep 2":1.21,"low cell count flag":"enough cells to score","Call":"inactive"}
{"target gene":"Mastl (microtubule associated serine/threonine kinase-like)","p65 translocation robust z-score":0.36,"nuclear/cytoplasmic p65 ratio, rep 1":1.76,"nuclear/cytoplasmic p65 ratio, rep 2":1.41,"low cell count flag":"enough cells to score","Call":"inactive"}
{"target gene":"Aldh1a3 (aldehyde dehydrogenase family 1, subfamily A3)","p65 translocation robust z-score":-0.45,"nuclear/cytoplasmic p65 ratio, rep 1":1.54,"nuclear/cytoplasmic p65 ratio, rep 2":1.57,"low cell count flag":"enough cells to score","Call":"inactive"}
{"target gene":"Raet1d (retinoic acid early transcript delta)","p65 translocation robust z-score":0.69,"nuclear/cytoplasmic p65 ratio, rep 1":1.48,"nuclear/cytoplasmic p65 ratio, rep 2":1.28,"low cell count flag":"enough cells to score","Call":"inactive"}
{"target gene":"Or6c213 (olfactory receptor family 6 subfamily C member 213)","nuclear/cytoplasmic p65 ratio, rep 1":1.35,"nuclear/cytoplasmic p65 ratio, rep 2":1.25,"low cell count flag":"fewer than 50 cells per well; well left out of scoring","Call":"inactive"}

Continued; the last 2 above are carried over.
{"target gene":"Raet1d (retinoic acid early transcript delta)","p65 translocation robust z-score":0.69,"nuclear/cytoplasmic p65 ratio, rep 1":1.48,"nuclear/cytoplasmic p65 ratio, rep 2":1.28,"low cell count flag":"enough cells to score","Call":"inactive"}
{"target gene":"Or6c213 (olfactory receptor family 6 subfamily C member 213)","nuclear/cytoplasmic p65 ratio, rep 1":1.35,"nuclear/cytoplasmic p65 ratio, rep 2":1.25,"low cell count flag":"fewer than 50 cells per well; well left out of scoring","Call":"inactive"}
{"target gene":"Mybpc3 (myosin binding protein C, cardiac)","p65 translocation robust z-score":-0.54,"nuclear/cytoplasmic p65 ratio, rep 1":1.37,"nuclear/cytoplasmic p65 ratio, rep 2":1.27,"low cell count flag":"enough cells to score","Call":"inactive"}
{"target gene":"C530047H08Rik (RIKEN cDNA C530047H08 gene)","p65 translocation robust z-score":-0.56,"nuclear/cytoplasmic p65 ratio, rep 1":1.4,"nuclear/cytoplasmic p65 ratio, rep 2":1.4,"low cell count flag":"enough cells to score","Call":"inactive"}
{"target gene":"1700029M20Rik (RIKEN cDNA 1700029M20 gene)","nuclear/cytoplasmic p65 ratio, rep 1":1.11,"nuclear/cytoplasmic p65 ratio, rep 2":1.28,"low cell count flag":"fewer than 50 cells per well; well left out of scoring","Call":"inactive"}
{"target gene":"T2 (brachyury 2)","p65 translocation robust z-score":0.41,"nuclear/cytoplasmic p65 ratio, rep 1":1.39,"nuclear/cytoplasmic p65 ratio, rep 2":1.26,"low cell count flag":"enough cells to score","Call":"inactive"}
{"target gene":"Arl5a (ADP-ribosylation factor-like 5A)","p65 translocation robust z-score":1.14,"nuclear/cytoplasmic p65 ratio, rep 1":1.68,"nuclear/cytoplasmic p65 ratio, rep 2":1.89,"low cell count flag":"enough cells to score","Call":"inactive"}
{"target gene":"Nop53 (NOP53 ribosome biogenesis factor)","p65 translocation robust z-score":-0.96,"nuclear/cytoplasmic p65 ratio, rep 1":1.32,"nuclear/cytoplasmic p65 ratio, rep 2":1.25,"low cell count flag":"enough cells to score","Call":"inactive"}
{"target gene":"Ogfod2","p65 translocation robust z-score":-0.44,"nuclear/cytoplasmic p65 ratio, rep 1":1.36,"nuclear/cytoplasmic p65 ratio, rep 2":1.35,"low cell count flag":"enough cells to score","Call":"inactive"}
{"target gene":"Cnnm1 (cyclin M1)","p65 translocation robust z-score":0.64,"nuclear/cytoplasmic p65 ratio, rep 1":1.82,"nuclear/cytoplasmic p65 ratio, rep 2":1.46,"low cell count flag":"enough cells to score","Call":"inactive"}
